Reference: publication PMC5354556
These are yes or no findings as the source states them, for the method shown. Binding seen in cells or lysates may run through a third protein. A result given as binding can be weak or reduced; the word gives no strength. Sequences can lack the tags named with a protein.

Target: T1, Arabidopsis thaliana Bax Inhibitor-1 (AtBI-1), full length, V5-tagged (Arabidopsis thaliana) (UniProt Q9LD45)
T1 sequence: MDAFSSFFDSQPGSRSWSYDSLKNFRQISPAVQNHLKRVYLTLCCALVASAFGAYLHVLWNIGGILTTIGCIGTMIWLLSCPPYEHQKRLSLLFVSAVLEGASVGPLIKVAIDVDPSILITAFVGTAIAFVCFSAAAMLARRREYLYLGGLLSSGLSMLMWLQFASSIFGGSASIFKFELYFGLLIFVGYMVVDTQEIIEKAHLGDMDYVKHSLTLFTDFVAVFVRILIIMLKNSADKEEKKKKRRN
Experiment: co-IP; total protein extracts of yeast W303 induced for 6 h to express PAP and V5-tagged AtBI-1 or AtBI-1∆C; V5 monoclonal antibody, protein A-Sepharose beads; blots with affinity purified PAP antibody and V5 antibody

Substance | binding
pokeweed antiviral protein (PAP), mature form (Phytolacca americana) | no binding
pokeweed antiviral protein (PAP), precursor form (Phytolacca americana) | binds
